# US20110152221A1, “PAK1 Agonists and Methods of Use” (THE BOARD OF TRUSTEES OF THE UNIVERSITY OF ILLINOIS, priority 2008, published 2011)
# Amino acid sequences for entries named in this document (tags omitted).
# UniProt Q08E52, whole entry: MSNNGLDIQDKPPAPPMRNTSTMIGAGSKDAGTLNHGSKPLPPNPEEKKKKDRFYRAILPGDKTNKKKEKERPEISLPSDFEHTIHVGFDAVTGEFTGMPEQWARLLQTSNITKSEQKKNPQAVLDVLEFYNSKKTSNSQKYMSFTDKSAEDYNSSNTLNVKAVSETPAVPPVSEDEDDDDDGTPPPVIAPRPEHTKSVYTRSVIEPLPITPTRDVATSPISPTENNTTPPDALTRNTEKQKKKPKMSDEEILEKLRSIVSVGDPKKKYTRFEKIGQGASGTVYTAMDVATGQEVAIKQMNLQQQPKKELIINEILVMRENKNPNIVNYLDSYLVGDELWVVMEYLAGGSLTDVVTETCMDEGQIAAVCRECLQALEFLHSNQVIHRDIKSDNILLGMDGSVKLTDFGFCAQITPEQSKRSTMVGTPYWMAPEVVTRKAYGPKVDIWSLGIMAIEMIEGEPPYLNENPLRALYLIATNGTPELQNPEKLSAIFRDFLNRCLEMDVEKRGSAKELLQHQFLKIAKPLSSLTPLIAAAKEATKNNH
# For at least one compound, name, drawing or mass did not settle the structure.
# How the values were obtained:
# [1] = target: T1, Pak1 purified from cardiac muscle (Bos taurus, UniProt Q08E52); assay: Pak1 kinase assay (autophosphorylation, [γ32P] ATP, autoradiography); type: biochemical, bovine; conditions: FTY720 1, 10, 100, 1000 μM in DMSO; Pak1 0.25 μg (Table 1)
# T1 construct: from tissue; host or cells: bovine ventricle (cardiac) muscle
# Protocol: Preparation of Muscle Sample. Frozen bovine ventricle muscle (200 g) was cut into small pieces and homogenized in a blender containing 1 liter homogenization buffer (50 mM Tris base, 5 mM EDTA, 2 mM EGTA, 1 mM DTT, 0.5 mM benzamidine, 0.1 mM PMSF, pH 7.2). The homogenized muscle sample was centrifuged at 4500 g for 30 minutes. The supernatant fraction was saved and precipitated with ammonium sulfate (NH4)2SO4 at concentration 25% and 50% (w/v). Precipitates formed by (NH4)2SO4 addition between concentration 25% (w/v) and 50% (w/v) were saved and dialyzed against the homogenization buffer. After dialysis, the sample was filtered and lyophilized. For purification of Pak1 from smaller amounts of sample, the tissues or cells were homogenized in mammalian extraction buffer (50 mM Tris, pH 7.5; 150 mM NaCl; 0.1% Nonide P40; Complete Protease inhibitor cocktail tablets [Roche Diagnostics, cat # 11 873 580 001]). The ratio of tissue:buffer was about 1:5 (v/v). The homogenate was centrifuged in a bench-top centrifuge at 4° C. The supernatant fraction was saved for direct application onto the affinity column.
# Affinity Chromatography. […]
# Kinase Assay. […] Incorporation of 32P from gamma 32P into Pak1 was directly detected by autoradiography after resolve the in vitro reaction products on SDS PAGE. […] In purified Pak1 sample, a 48 kD Pak1 degradation products can sometimes be detected (FIG. 1A, lane 3). […]
# [2] = system: cardiac troponin in cardiomyocytes / ventricle myocytes; assay: Dephosphorylation of cardiac troponin in cardiomyocytes; type: cell-based
# Excerpt: FTY720 is a structural analogue of sphingosine-1 and C2/C6-ceramide. […] Therefore, like C2- and C6-ceramides, FTY720 can serve as a β-blocker competitor for ischemic heart diseases including angina and systolic heart failure. The anti-(β) adrenergic effect of FTY720 is through activation of Pak1 in the heart. Our current observation further enforced by our previous work on Pak1 function related to heart diseases. Our studies also indicate that even better drug candidates can be designed or screened by testing their effects on Pak1 activation or inhibition using C2/C6 ceramides and FTY720 as prototypes.
compound,measurement,setting,value
"CCCCCCCCc1ccc(CCC(N)(CO)CO)cc1 [FTY720, fingolimod]",autophosphorylation of Pak1 by FTY720,[1],stimulated
same,functional property on Pak1 and in ventricle myocytes compared with C2- and C6-ceramides,[2],same functional property
